This note sets out measurements from publication PMC8981990.

The chains behind the UniProt entries cited, without tags or fusion partners.
UniProt P14635: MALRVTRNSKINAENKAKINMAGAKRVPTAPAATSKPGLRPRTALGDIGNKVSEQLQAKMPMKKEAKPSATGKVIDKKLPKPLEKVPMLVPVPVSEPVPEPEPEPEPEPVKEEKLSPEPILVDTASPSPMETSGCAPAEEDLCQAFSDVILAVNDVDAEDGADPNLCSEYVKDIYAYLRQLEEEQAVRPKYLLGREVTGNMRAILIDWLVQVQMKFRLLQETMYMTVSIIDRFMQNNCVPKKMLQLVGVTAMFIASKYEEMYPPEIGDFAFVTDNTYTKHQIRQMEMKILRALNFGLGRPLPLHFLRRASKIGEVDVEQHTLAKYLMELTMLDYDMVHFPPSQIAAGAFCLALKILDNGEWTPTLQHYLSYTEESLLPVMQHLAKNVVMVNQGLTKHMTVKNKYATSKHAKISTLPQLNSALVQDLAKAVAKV
UniProt P14618: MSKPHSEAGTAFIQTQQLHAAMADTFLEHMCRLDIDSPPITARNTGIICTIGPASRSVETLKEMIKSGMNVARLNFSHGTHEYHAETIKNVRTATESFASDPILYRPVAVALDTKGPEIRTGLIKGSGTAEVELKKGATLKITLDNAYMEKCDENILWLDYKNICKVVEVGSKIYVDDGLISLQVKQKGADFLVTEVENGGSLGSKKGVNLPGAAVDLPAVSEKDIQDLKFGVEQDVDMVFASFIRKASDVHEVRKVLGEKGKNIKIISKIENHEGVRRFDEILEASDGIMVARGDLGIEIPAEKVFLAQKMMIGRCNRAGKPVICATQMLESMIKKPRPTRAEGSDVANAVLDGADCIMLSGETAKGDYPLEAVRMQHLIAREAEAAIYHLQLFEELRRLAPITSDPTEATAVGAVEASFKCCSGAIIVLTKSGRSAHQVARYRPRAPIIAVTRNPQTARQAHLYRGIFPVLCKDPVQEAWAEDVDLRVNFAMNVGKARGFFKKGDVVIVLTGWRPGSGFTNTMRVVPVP

These are yes or no findings as the source states them, for the method shown. In cells and extracts the contact can be indirect. Some results given as binding are weak or reduced against the parent protein; the word gives no strength.

Experiment [1] addresses cyclin B1 (human (endogenous in U87)) (UniProt P14635). In words: co-IP; control (scrambled shRNA) U87 cells, whole-cell lysates 2-15 h after release from serum starvation; IP of Cdk1, cyclin B or PKM2 with protein A/G-agarose, washes with RIPA containing 0.5 M NaCl and 2% SDS, Western blot; with DASA-58 (40 uM, last 3 h, harvest at 10 h) less co-precipitate. A general note: In western blotting, separated proteins are transferred to a membrane and probed.

For experiment [2] the target is unchanged. In words: co-IP; patient-derived xenograft cell lines GBM6 and GBM39, lysates after release from serum starvation; IP of Cdk1 or cyclin B, Western blot. (In general: Xenograft models place foreign cells or tissue in a host animal.)
For experiment [3] the target is unchanged. In words: co-IP; NHA-E6-E7-hTERT-Ras cells, lysates 2-15 h after release; IP of Cdk1 or cyclin B, Western blot.
For experiment [4] the target is unchanged. Nature of the experiment: condition: only cells undergoing mitosis (mitotic shake-off); co-IP; control U87 cells undergoing mitosis, isolated by mitotic shake-off (M lanes); IP of Cdk1, cyclin B or PKM2, Western blot.
Experiment [5] shares this target. Nature of the experiment: condition: only early after release from serum starvation, before Cdk1 and cyclin B associate; co-IP; control U87 cells at early times after release from serum starvation, before Cdk1 and cyclin B associate; IP of Cdk1, cyclin B or PKM2, Western blot.
In experiment [6] the target is PKM2 (pyruvate kinase M2 isoform) (human (endogenous in U87)) (UniProt P14618). In words: co-IP; control (scrambled shRNA) U87 cells, whole-cell lysates 2-15 h after release from serum starvation; IP of Cdk1, cyclin B or PKM2 with protein A/G-agarose, washes with RIPA containing 0.5 M NaCl and 2% SDS, Western blot; with DASA-58 (40 uM, last 3 h, harvest at 10 h) less co-precipitate.

Regarding “PKM2 (pyruvate kinase M2 isoform) (from UniProt P14618 1-531)”, the binding entry was “binds” in experiment [1]; “binds” in experiment [2]; “binds” in experiment [3]; “no binding” in experiment [4]; “no binding” in experiment [5].

As for cyclin B1 (from UniProt P14635 1-433), the binding entry in experiment [6] was “binds”.
